The results in this text go back to paper PMC10321013.

Amino acid sequences for entries named in this document (tags omitted).
UniProt P25490: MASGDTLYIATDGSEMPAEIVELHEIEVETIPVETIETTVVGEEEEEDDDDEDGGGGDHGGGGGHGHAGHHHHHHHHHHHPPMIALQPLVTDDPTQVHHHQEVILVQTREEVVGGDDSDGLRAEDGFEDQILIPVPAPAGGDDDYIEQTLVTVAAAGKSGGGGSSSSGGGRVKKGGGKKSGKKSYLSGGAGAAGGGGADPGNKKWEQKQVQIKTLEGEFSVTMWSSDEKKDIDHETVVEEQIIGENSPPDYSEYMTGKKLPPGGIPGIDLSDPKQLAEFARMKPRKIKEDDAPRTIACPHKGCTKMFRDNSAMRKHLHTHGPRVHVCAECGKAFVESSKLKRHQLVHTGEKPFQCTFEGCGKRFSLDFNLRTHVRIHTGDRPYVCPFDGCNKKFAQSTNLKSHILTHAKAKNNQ
UniProt Q93009: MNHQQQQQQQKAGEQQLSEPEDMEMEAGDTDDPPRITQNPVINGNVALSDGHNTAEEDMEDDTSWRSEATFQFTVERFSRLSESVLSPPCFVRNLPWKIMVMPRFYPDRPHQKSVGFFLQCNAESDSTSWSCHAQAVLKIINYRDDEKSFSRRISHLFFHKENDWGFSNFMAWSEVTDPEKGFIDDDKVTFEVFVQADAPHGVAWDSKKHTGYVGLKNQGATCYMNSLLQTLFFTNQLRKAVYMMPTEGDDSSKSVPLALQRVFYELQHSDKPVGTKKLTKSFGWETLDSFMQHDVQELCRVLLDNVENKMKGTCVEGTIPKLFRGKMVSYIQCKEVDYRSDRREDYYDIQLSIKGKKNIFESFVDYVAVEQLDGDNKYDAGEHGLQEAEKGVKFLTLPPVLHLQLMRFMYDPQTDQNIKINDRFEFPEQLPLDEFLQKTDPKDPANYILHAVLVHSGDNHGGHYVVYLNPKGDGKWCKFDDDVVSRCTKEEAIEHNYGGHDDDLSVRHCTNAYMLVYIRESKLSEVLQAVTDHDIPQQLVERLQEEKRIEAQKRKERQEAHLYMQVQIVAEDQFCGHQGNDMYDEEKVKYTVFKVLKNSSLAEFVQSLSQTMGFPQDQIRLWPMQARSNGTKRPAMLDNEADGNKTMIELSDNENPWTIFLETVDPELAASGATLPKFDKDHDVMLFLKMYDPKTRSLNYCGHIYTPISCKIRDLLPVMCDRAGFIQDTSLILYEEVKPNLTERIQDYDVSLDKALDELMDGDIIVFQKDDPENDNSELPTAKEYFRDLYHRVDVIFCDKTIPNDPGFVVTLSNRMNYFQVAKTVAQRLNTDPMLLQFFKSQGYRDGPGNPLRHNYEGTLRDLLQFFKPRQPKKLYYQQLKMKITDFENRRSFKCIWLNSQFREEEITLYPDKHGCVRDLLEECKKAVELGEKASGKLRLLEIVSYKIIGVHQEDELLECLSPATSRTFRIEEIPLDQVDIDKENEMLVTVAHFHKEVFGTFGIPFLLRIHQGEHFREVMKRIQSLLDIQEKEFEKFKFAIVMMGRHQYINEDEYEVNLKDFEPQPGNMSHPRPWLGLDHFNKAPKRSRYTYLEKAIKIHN

These are yes or no findings as the source states them, for the method shown. In cells and extracts the contact can be indirect. Here binding means that the protein was enriched with, or labelled near, the bait; the list need not be complete.

The assay deals with Flag-YY1 (UniProt P25490). Put plainly: affinity purification with mass spectrometry; lysate of PLC-PRF-5 cells expressing Flag-YY1 (0.3% Nonidet P-40, 150 mM NaCl, 50 mM Tris-HCl pH 7.4, 0.2 mM EDTA) on anti-Flag affinity beads, 12 h at 4 °C; eluted with Flag peptide; Coomassie bands analysed by LC-MS/MS.

On to “Ubiquitin-specific protease 7 (USP7) (from UniProt Q93009 1-1102) (enzyme)”, for which the binding entry is recorded as “binds”.
